{"source": "PubChem BioAssay AID188", "about": "(DTP/NCI, 2004)", "test_system": "CD2F1 mice, nontumored, toxicity/survival", "experiment": "NCI In Vivo Anticancer Drug Screen. Data for tumor model Nontumored Animals (Toxicity Test) in CD2F1 (CDF1) mice", "note": "Shown are survivors of the treated group in tumour-free mice. Survivors were counted at the toxicity check, usually on the fifth day, unless a day is given; later deaths do not show. Schedules are NCI's codes, taken here to give the interval after Q, in days (D) or hours (H), and the number of doses after X. Some entries hold several experiments; their values stand side by side, smallest first.", "data": [{"compound": "Cc1[nH]c(=O)[nH]c(=O)c1N(CCF)CCCl", "values": [{"measurement": "survivor count", "setting": "dose: 0.5 mg/kg/injection, schedule: Q03HX024 (ip), vehicle: acid diluted with saline", "result": "8 of 8"}, {"measurement": "survivor count", "setting": "dose: 1.0 mg/kg/injection, schedule: Q03HX016 (ip), vehicle: acid diluted with saline", "result": "8 of 8"}, {"measurement": "survivor count", "setting": "dose: 1.0 mg/kg/injection, schedule: Q03HX024 (ip), vehicle: acid diluted with saline", "result": "8 of 8"}, {"measurement": "survivor count", "setting": "dose: 2.0 mg/kg/injection, schedule: Q01DX009 (ip), vehicle: acid diluted with saline", "result": "8 of 8"}, {"measurement": "survivor count", "setting": "dose: 2.0 mg/kg/injection, schedule: Q01DX009 (sc), vehicle: acid diluted with saline", "result": "8 of 8"}, {"measurement": "survivor count", "setting": "dose: 2.0 mg/kg/injection, schedule: Q03HX008 (ip), vehicle: acid diluted with saline", "result": "8 of 8"}, {"measurement": "survivor count", "setting": "dose: 2.0 mg/kg/injection, schedule: Q03HX016 (ip), vehicle: acid diluted with saline", "result": "8 of 8"}, {"measurement": "survivor count", "setting": "dose: 2.0 mg/kg/injection, schedule: Q03HX024 (ip), vehicle: acid diluted with saline", "result": "8 of 8"}, {"measurement": "survivor count", "setting": "dose: 2.0 mg/kg/injection, schedule: Q03HX024 (oral), vehicle: acid diluted with saline", "result": "8 of 8"}, {"measurement": "survivor count", "setting": "dose: 2.0 mg/kg/injection, schedule: Q03HX024 (oral), vehicle: other", "result": "8 of 8"}, {"measurement": "survivor count", "setting": "dose: 4.0 mg/kg/injection, schedule: Q01DX009 (ip), vehicle: acid diluted with saline", "result": "8 of 8"}, {"measurement": "survivor count", "setting": "dose: 4.0 mg/kg/injection, schedule: Q01DX009 (sc), vehicle: acid diluted with saline", "result": "8 of 8"}, {"measurement": "survivor count", "setting": "dose: 4.0 mg/kg/injection, schedule: Q03HX008 (ip), vehicle: acid diluted with saline", "result": "8 of 8"}, {"measurement": "survivor count", "setting": "dose: 4.0 mg/kg/injection, schedule: Q03HX008 (oral), vehicle: other", "result": "8 of 8"}, {"measurement": "survivor count", "setting": "dose: 4.0 mg/kg/injection, schedule: Q03HX016 (ip), vehicle: acid diluted with saline", "result": "8 of 8"}, {"measurement": "survivor count", "setting": "dose: 4.0 mg/kg/injection, schedule: Q03HX016 (oral), vehicle: other", "result": "8 of 8"}, {"measurement": "survivor count", "setting": "dose: 4.0 mg/kg/injection, schedule: Q03HX024 (ip), vehicle: acid diluted with saline", "result": "8 of 8"}, {"measurement": "survivor count", "setting": "dose: 4.0 mg/kg/injection, schedule: Q03HX024 (oral), vehicle: acid diluted with saline", "result": "8 of 8"}, {"measurement": "survivor count", "setting": "dose: 4.0 mg/kg/injection, schedule: Q03HX024 (oral), vehicle: other", "result": "8 of 8"}, {"measurement": "survivor count", "setting": "dose: 4.0 mg/kg/injection, schedule: Q04DX003 (ip), vehicle: acid diluted with saline", "result": "8 of 8"}, {"measurement": "survivor count", "setting": "dose: 8.0 mg/kg/injection, schedule: Q01DX009 (ip), vehicle: acid diluted with saline", "result": "8 of 8"}, {"measurement": "survivor count", "setting": "dose: 8.0 mg/kg/injection, schedule: Q01DX009 (ip), vehicle: saline with Tween-80", "result": "8 of 8"}, {"measurement": "survivor count", "setting": "dose: 8.0 mg/kg/injection, schedule: Q01DX009 (oral), vehicle: acid diluted with saline", "result": "8 of 8"}, {"measurement": "survivor count", "setting": "dose: 8.0 mg/kg/injection, schedule: Q01DX009 (oral), vehicle: other", "result": "7 of 8"}, {"measurement": "survivor count", "setting": "dose: 8.0 mg/kg/injection, schedule: Q01DX009 (sc), vehicle: acid diluted with saline", "result": "8 of 8"}, {"measurement": "survivor count", "setting": "dose: 8.0 mg/kg/injection, schedule: Q03HX008 (ip), vehicle: acid diluted with saline", "result": "8 of 8"}, {"measurement": "survivor count", "setting": "dose: 8.0 mg/kg/injection, schedule: Q03HX008 (oral), vehicle: acid diluted with saline", "result": "8 of 8"}, {"measurement": "survivor count", "setting": "dose: 8.0 mg/kg/injection, schedule: Q03HX008 (oral), vehicle: other", "result": "7 of 8"}, {"measurement": "survivor count", "setting": "dose: 8.0 mg/kg/injection, schedule: Q03HX016 (ip), vehicle: acid diluted with saline", "result": "8 of 8"}, {"measurement": "survivor count", "setting": "dose: 8.0 mg/kg/injection, schedule: Q03HX016 (oral), vehicle: acid diluted with saline", "result": "8 of 8"}, {"measurement": "survivor count", "setting": "dose: 8.0 mg/kg/injection, schedule: Q03HX016 (oral), vehicle: other", "result": "8 of 8"}, {"measurement": "survivor count", "setting": "dose: 8.0 mg/kg/injection, schedule: Q03HX024 (ip), vehicle: acid diluted with saline", "result": "8 of 8"}, {"measurement": "survivor count", "setting": "dose: 8.0 mg/kg/injection, schedule: Q03HX024 (oral), vehicle: acid diluted with saline", "result": "8 of 8"}, {"measurement": "survivor count", "setting": "dose: 8.0 mg/kg/injection, schedule: Q03HX024 (oral), vehicle: other", "result": "8 of 8"}, {"measurement": "survivor count", "setting": "dose: 8.0 mg/kg/injection, schedule: Q04DX003 (ip), vehicle: acid diluted with saline", "result": "7 of 8"}, {"measurement": "survivor count", "setting": "dose: 8.0 mg/kg/injection, schedule: Q08DX002 (ip), vehicle: acid diluted with saline", "result": "8 of 8"}, {"measurement": "survivor count", "setting": "dose: 16.0 mg/kg/injection, schedule: Q01DX001 (ip), vehicle: acid diluted with saline", "result": "8 of 8"}, {"measurement": "survivor count", "setting": "dose: 16.0 mg/kg/injection, schedule: Q01DX001 (sc), vehicle: acid diluted with saline", "result": "8 of 8"}, {"measurement": "survivor count", "setting": "dose: 16.0 mg/kg/injection, schedule: Q01DX009 (ip), vehicle: acid diluted with saline", "result": "8 of 8"}, {"measurement": "survivor count", "setting": "dose: 16.0 mg/kg/injection, schedule: Q01DX009 (ip), vehicle: saline with Tween-80", "result": "8 of 8"}, {"measurement": "survivor count", "setting": "dose: 16.0 mg/kg/injection, schedule: Q01DX009 (oral), vehicle: acid diluted with saline", "result": "8 of 8"}, {"measurement": "survivor count", "setting": "dose: 16.0 mg/kg/injection, schedule: Q01DX009 (oral), vehicle: other", "result": "7 of 8"}, {"measurement": "survivor count", "setting": "dose: 16.0 mg/kg/injection, schedule: Q01DX009 (sc), vehicle: acid diluted with saline", "result": "8 of 8"}, {"measurement": "survivor count", "setting": "dose: 16.0 mg/kg/injection, schedule: Q03HX008 (ip), vehicle: acid diluted with saline", "result": "8 of 8"}, {"measurement": "survivor count", "setting": "dose: 16.0 mg/kg/injection, schedule: Q03HX008 (oral), vehicle: acid diluted with saline", "result": "8 of 8"}, {"measurement": "survivor count", "setting": "dose: 16.0 mg/kg/injection, schedule: Q03HX008 (oral), vehicle: other", "result": "3 of 8"}, {"measurement": "survivor count", "setting": "dose: 16.0 mg/kg/injection, schedule: Q03HX016 (ip), vehicle: acid diluted with saline", "result": "8 of 8"}, {"measurement": "survivor count", "setting": "dose: 16.0 mg/kg/injection, schedule: Q03HX016 (oral), vehicle: acid diluted with saline", "result": "7 of 8"}, {"measurement": "survivor count", "setting": "dose: 16.0 mg/kg/injection, schedule: Q03HX016 (oral), vehicle: other", "result": "2 of 8"}, {"measurement": "survivor count", "setting": "dose: 16.0 mg/kg/injection, schedule: Q03HX024 (oral), vehicle: acid diluted with saline", "result": "7 of 8"}, {"measurement": "survivor count", "setting": "dose: 16.0 mg/kg/injection, schedule: Q03HX024 (oral), vehicle: other", "result": "0 of 8"}, {"measurement": "survivor count", "setting": "dose: 16.0 mg/kg/injection, schedule: Q04DX003 (ip), vehicle: acid diluted with saline", "result": "8 of 8"}, {"measurement": "survivor count", "setting": "dose: 16.0 mg/kg/injection, schedule: Q04DX003 (oral), vehicle: acid diluted with saline", "result": "8 of 8"}, {"measurement": "survivor count", "setting": "dose: 16.0 mg/kg/injection, schedule: Q04DX003 (oral), vehicle: other", "result": "8 of 8"}, {"measurement": "survivor count", "setting": "dose: 16.0 mg/kg/injection, schedule: Q08DX002 (ip), vehicle: acid diluted with saline", "result": "8 of 8"}, {"measurement": "survivor count", "setting": "dose: 32.0 mg/kg/injection, schedule: Q01DX001 (ip), vehicle: acid diluted with saline", "result": "8 of 8"}, {"measurement": "survivor count", "setting": "dose: 32.0 mg/kg/injection, schedule: Q01DX001 (oral), vehicle: other", "result": "8 of 8"}, {"measurement": "survivor count", "setting": "dose: 32.0 mg/kg/injection, schedule: Q01DX001 (sc), vehicle: acid diluted with saline", "result": "8 of 8"}, {"measurement": "survivor count", "setting": "dose: 32.0 mg/kg/injection, schedule: Q01DX009 (ip), vehicle: acid diluted with saline", "result": "7 of 8 and 8 of 8"}, {"measurement": "survivor count", "setting": "dose: 32.0 mg/kg/injection, schedule: Q01DX009 (ip), vehicle: saline with Tween-80", "result": "8 of 8"}, {"measurement": "survivor count", "setting": "dose: 32.0 mg/kg/injection, schedule: Q01DX009 (oral), vehicle: acid diluted with saline", "result": "8 of 8"}, {"measurement": "survivor count", "setting": "dose: 32.0 mg/kg/injection, schedule: Q01DX009 (oral), vehicle: other", "result": "7 of 8"}, {"measurement": "survivor count", "setting": "dose: 32.0 mg/kg/injection, schedule: Q01DX009 (sc), vehicle: acid diluted with saline", "result": "8 of 8"}, {"measurement": "survivor count", "setting": "dose: 32.0 mg/kg/injection, schedule: Q03HX008 (ip), vehicle: acid diluted with saline", "result": "8 of 8"}]}]}
